Where no unit stands, none is given here, and values compare only within one read-out.
Legend:
tongue [1] = test: Comparative Example 1: comparison of taste of different vortioxetine salts (10 subjects, 30 attempts); conditions: powder equivalent to 5 mg of vortioxetine on the tongue for one minute; 30 attempts by 10 subjects
Procedure: The vortioxetine lactate salt, vortioxetine hydrobromide and vortioxetine hemihydrobromide equivalent to 5 mg of vortioxetine respectively over 100 mesh powders were put directly in front of the upper part of the tongue for one minute. There were 10 subjects in each salt-type group, and each subject randomly tried each salt-type 3 times. After trying one salt-type taste, rinsed your mouth, and try another salt-type after there was no irritation. After trying the taste, record the bitterness level and tongue irritation, spit it out a few seconds later, rinse your mouth, record the time for the irritation to subside, eat 1-1.5 hours later, and record the irritation again.

tongue [2] = test: Comparative Example 2: comparison of taste of solid dispersion, hemihydrobromide powder and marketed drug product (20 subjects); assay type: in vivo, human; conditions: powder equivalent to 10 mg vortioxetine on the tongue for one minute
Procedure: The solid dispersion equivalent to 10 mg vortioxetine prepared in Example 9b, vortioxetine hemihydrobromide powder equivalent to 10 mg vortioxetine, and the powder compressed by vortioxetine hydrobromide marketed drug product equivalent to 10 mg of vortioxetine hydrobromide passed through 100 mesh sieve, then they were put directly in front of the upper part of the tongue for one minute. There were 20 subjects in each powder group. After trying one powder taste, rinsed your mouth, and try another powder after there was no irritation. After trying the taste, record the bitterness level and tongue irritation, spit it out a few seconds later, rinse your mouth, record the time for the irritation to subside, eat 1-1.5 hours later, and record the irritation again.

SMILES | Number of subjects who felt different levels of bitterness: Extremely bitter (tongue [1]) | Number of subjects who felt different levels of bitterness: Not bitter (tongue [1]) | Number of subjects who felt different levels of bitterness: Slightly bitter (tongue [1]) | Number of subjects who felt different levels of bitterness: Extremely bitter (tongue [2]) | Number of subjects who felt different levels of bitterness: Not bitter (tongue [2]) | Number of subjects who felt different levels of bitterness: Slightly bitter (tongue [2])
Br.Cc1ccc(Sc2ccccc2N2CCNCC2)c(C)c1 [Monosalt hydrobromate] | 28 times | 0 times | 2 times | – | – | –
Br.Cc1ccc(Sc2ccccc2N2CCNCC2)c(C)c1.Cc1ccc(Sc2ccccc2N2CCNCC2)c(C)c1 [Vortioxetine hemihydrobromide powder] | – | – | – | 9 | 0 | 11
Br.Cc1ccc(Sc2ccccc2N2CCNCC2)c(C)c1.Cc1ccc(Sc2ccccc2N2CCNCC2)c(C)c1 [hemihydrobromide] | 12 times | 0 times | 18 times | – | – | –
CC(O)C(=O)O.Cc1ccc(Sc2ccccc2N2CCNCC2)c(C)c1 [lactate salt] | 29 times | 0 times | 1 times | – | – | –
